No constants are given. Whether binding was seen depends on the method and setting. In cells and extracts the contact can be indirect. Here binding means that the protein was enriched with, or labelled near, the bait; the list need not be complete.
Target: APEX2- or TurboID-conjugated CSN5 (human) (UniProt Q92905)
Test: proximity labelling; RPMI8226 cells overexpressing APEX2-CSN5 (500 uM biotin-tyramide 30 min, then 1 mM H2O2 1 min) or TurboID-CSN5 (500 uM biotin 10 min); streptavidin magnetic beads, LC-MS/MS (DIA); proximal = enriched 2-fold or more, p < 0.01, in biotin-tyramide- or biotin-treated samples; hits of the two systems pooled

Sequences of proteins named here, by UniProt entry; tags and fusion partners are left off.
UniProt Q92905: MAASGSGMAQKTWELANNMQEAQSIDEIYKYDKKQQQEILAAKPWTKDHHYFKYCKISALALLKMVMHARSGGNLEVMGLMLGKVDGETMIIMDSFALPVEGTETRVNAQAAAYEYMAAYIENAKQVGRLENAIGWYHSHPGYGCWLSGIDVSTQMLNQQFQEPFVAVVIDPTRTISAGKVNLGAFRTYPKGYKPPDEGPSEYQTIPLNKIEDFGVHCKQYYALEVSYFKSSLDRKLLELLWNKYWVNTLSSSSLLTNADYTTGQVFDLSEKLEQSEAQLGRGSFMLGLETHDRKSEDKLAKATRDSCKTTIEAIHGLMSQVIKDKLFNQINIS
UniProt Q13620: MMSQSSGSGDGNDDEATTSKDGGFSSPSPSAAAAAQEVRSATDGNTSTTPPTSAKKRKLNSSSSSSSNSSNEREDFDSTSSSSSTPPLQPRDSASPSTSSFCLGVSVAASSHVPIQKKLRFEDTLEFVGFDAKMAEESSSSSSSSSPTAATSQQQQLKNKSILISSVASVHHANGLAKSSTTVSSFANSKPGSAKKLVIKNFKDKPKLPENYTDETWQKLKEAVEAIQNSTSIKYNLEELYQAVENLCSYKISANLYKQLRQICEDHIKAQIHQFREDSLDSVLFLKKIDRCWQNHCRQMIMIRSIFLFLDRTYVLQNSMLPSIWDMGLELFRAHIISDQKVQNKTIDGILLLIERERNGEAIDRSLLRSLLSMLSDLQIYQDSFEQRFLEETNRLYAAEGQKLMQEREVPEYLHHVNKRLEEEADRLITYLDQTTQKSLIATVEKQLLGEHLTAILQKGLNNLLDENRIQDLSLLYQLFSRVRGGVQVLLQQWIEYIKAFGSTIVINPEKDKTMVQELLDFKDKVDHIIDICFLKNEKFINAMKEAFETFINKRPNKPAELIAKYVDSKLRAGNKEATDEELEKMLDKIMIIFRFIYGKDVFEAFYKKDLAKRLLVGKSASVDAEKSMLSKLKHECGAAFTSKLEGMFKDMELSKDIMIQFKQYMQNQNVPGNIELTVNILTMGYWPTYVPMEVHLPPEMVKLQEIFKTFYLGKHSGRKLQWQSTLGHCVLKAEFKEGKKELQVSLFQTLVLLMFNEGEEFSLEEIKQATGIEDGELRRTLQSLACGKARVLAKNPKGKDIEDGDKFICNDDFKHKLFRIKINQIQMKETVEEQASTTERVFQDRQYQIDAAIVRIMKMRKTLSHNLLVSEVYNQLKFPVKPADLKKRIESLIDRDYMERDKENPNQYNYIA

binding: binds
Substance: CUL4B (from UniProt Q13620 1-913)
